The record followed here is publication PMC4754342.

Protein sequences, listed by entry. Tags and fused reporters are not part of them. Lines headed by an entry give the natural chain unless they say otherwise; changes in a name come on top.
UniProt Q7L523: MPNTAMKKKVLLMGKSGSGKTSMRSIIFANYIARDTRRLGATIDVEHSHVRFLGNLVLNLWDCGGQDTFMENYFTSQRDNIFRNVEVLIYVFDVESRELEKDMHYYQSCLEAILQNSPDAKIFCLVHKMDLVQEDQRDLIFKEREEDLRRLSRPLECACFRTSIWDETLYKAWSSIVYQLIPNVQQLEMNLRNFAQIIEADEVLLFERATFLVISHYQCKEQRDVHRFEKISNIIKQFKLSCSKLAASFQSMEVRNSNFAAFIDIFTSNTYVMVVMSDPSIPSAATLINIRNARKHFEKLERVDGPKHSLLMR
UniProt Q9HB90: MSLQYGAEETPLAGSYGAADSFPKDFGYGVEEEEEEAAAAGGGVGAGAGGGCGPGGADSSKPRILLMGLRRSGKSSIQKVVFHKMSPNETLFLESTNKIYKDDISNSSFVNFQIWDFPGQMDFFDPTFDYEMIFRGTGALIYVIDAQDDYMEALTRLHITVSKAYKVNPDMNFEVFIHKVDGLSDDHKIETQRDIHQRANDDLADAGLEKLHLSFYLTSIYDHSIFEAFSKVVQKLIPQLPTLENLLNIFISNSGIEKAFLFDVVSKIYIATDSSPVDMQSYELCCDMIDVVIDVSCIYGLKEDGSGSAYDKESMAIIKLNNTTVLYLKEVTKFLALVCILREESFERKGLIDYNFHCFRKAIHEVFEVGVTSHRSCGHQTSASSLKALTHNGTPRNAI

Assay [1] addresses Rag GTPases (FLAG-hRagA and hRagC) (human), Q7L523+Q9HB90. Put plainly: co-IP; FLAG-tagged proteins precipitated from lysates of transfected cells with anti-FLAG M2 affinity gel, 2-3 h at 4 °C; IP lysis buffer 50 mM Tris pH 7.5, 1% Triton X-100, 150 mM NaCl, 50 mM NaF; four washes; co-purifying proteins detected by immunoblot; cells treated with various stresses (2-DG and pH 9.4 medium among them) before lysis. To be noted: remark: other sources report otherwise.

Assay [2] concerns the target Rag GTPases (FLAG-hRagA and hRagC) (human) (UniProt Q7L523+Q9HB90). The assay is described as above.

Results are given in words; binding and its absence hold for the method and conditions named. In cells and extracts the contact can be indirect. Some binding calls cover weakened binding; strength is not graded here.

B1: TSC1, Q92574 1-1164 (protein)
chain: MAQQANVGELLAMLDSPMLGVRDDVTAVFKENLNSDRGPMLVNTLVDYYLETSSQPALHILTTLQEPHDKHLLDRINEYVGKAATRLSILSLLGHVIRLQPSWKHKLSQAPLLPSLLKCLKMDTDVVVLTTGVLVLITMLPMIPQSGKQHLLDFFDIFGRLSSWCLKKPGHVAEVYLVHLHASVYALFHRLYGMYPCNFVSFLRSHYSMKENLETFEEVVKPMMEHVRIHPELVTGSKDHELDPRRWKRLETHDVVIECAKISLDPTEASYEDGYSVSHQISARFPHRSADVTTSPYADTQNSYGCATSTPYSTSRLMLLNMPGQLPQTLSSPSTRLITEPPQATLWSPSMVCGMTTPPTSPGNVPPDLSHPYSKVFGTTAGGKGTPLGTPATSPPPAPLCHSDDYVHISLPQATVTPPRKEERMDSARPCLHRQHHLLNDRGSEEPPGSKGSVTLSDLPGFLGDLASEEDSIEKDKEEAAISRELSEITTAEAEPVVPRGGFDSPFYRDSLPGSQRKTHSAASSSQGASVNPEPLHSSLDKLGPDTPKQAFTPIDLPCGSADESPAGDRECQTSLETSIFTPSPCKIPPPTRVGFGSGQPPPYDHLFEVALPKTAHHFVIRKTEELLKKAKGNTEEDGVPSTSPMEVLDRLIQQGADAHSKELNKLPLPSKSVDWTHFGGSPPSDEIRTLRDQLLLLHNQLLYERFKRQQHALRNRRLLRKVIKAAALEEHNAAMKDQLKLQEKDIQMWKVSLQKEQARYNQLQEQRDTMVTKLHSQIRQLQHDREEFYNQSQELQTKLEDCRNMIAELRIELKKANNKVCHTELLLSQVSQKLSNSESVQQQMEFLNRQLLVLGEVNELYLEQLQNKHSDTTKEVEMMKAAYRKELEKNRSHVLQQTQRLDTSQKRILELESHLAKKDHLLLEQKKYLEDVKLQARGQLQAAESRYEAQKRITQVFELEILDLYGRLEKDGLLKKLEEEKAEAAEAAEERLDCCNDGCSDSMVGHNEEASGHNGETKTPRPSSARGSSGSRGGGGSSSSSSELSTPEKPPHQRAGPFSSRWETTMGEASASIPTTVGSLPSSKSFLGMKARELFRNKSESQCDEDGMTSSLSESLKTELGKDLGVEAKIPLNLDGPHPSPPTPDSVGQLHIMDYNETHHEHS
For the molecule B1, the binding entry in assay [1] is on record as “binds”.

B2: TBC1D7 (protein, UniProt Q9P0N9 1-293)
chain: MTEDSQRNFRSVYYEKVGFRGVEEKKSLEILLKDDRLDTEKLCTFSQRFPLPSMYRALVWKVLLGILPPHHESHAKVMMYRKEQYLDVLHALKVVRFVSDATPQAEVYLRMYQLESGKLPRSPSFPLEPDDEVFLAIAKAMEEMVEDSVDCYWITRRFVNQLNTKYRDSLPQLPKAFEQYLNLEDGRLLTHLRMCSAAPKLPYDLWFKRCFAGCLPESSLQRVWDKVVSGSCKILVFVAVEILLTFKIKVMALNSAEKITKFLENIPQDSSDAIVSKAIDLWHKHCGTPVHSS
Consider B2, for which the binding entry in assay [2] was “binds”.
